Measurements: the supplement of paper PMC8728848
This is one part of the list.

Assays:
Assay in all cases: glycan array binding signal (z-score within array); higher = stronger binding
Settings in all cases: glycan notation: IUPAC condensed, linker removed
[1] = target: Fuc(a1-2)Gal6S(b1-3)GlcNAc
Method in brief: (§1)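 Glycan array binding is given as a within-array Z-score, which can be read as non-binding when negative. The arrays, 3228 of them, came from the Consortium for Functional Glycomics database and were retained only where the protein sequence was available. Z-scores were averaged across arrays of the same protein sequence at different concentrations or buffers and across linkers.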

[2] = target: Fuc(a1-2)Gal6S(b1-3)GlcNAc6S
Method in brief: as §1

Fuc(a1-2)Gal6S(b1-4)Glc = target: Fuc(a1-2)Gal6S(b1-4)Glc
Method in brief: as §1

[3] = target: Fuc(a1-2)Gal6S(b1-4)Glc6S
Method in brief: as §1

Fuc(a1-2)[Gal(a1-3)]Gal = target: Fuc(a1-2)[Gal(a1-3)]Gal
Method in brief: as §1

[4] = target: Fuc(a1-2)[Gal(a1-3)]Gal(b1-3)GalNAc
Method in brief: as §1

[5] = target: Fuc(a1-2)[Gal(a1-3)]Gal(b1-3)GalNAc(b1-3)Gal(a1-4)Gal(b1-4)Glc
Method in brief: as §1

[6] = target: Fuc(a1-2)[Gal(a1-3)]Gal(b1-3)GlcNAc
Method in brief: as §1

[7] = target: Fuc(a1-2)[Gal(a1-3)]Gal(b1-3)GlcNAc(b1-2)Man(a1-3)[Fuc(a1-2)[Gal(a1-3)]Gal(b1-3)GlcNAc(b1-2)Man(a1-6)]Man(b1-4)GlcNAc(b1-4)GlcNAc
Method in brief: as §1

[8] = target: Fuc(a1-2)[Gal(a1-3)]Gal(b1-3)GlcNAc(b1-2)Man(a1-3)[Fuc(a1-2)[Gal(a1-3)]Gal(b1-3)GlcNAc(b1-2)Man(a1-6)]Man(b1-4)GlcNAc(b1-4)[Fuc(a1-6)]GlcNAc
Method in brief: as §1

[9] = target: Fuc(a1-2)[Gal(a1-3)]Gal(b1-3)GlcNAc(b1-3)GalNAc
Method in brief: as §1

[10] = target: Fuc(a1-2)[Gal(a1-3)]Gal(b1-3)GlcNAc(b1-6)GalNAc
Method in brief: as §1

[11] = target: Fuc(a1-2)[Gal(a1-3)]Gal(b1-4)Glc
Method in brief: as §1

[12] = target: Fuc(a1-2)[Gal(a1-3)]Gal(b1-4)GlcNAc
Method in brief: as §1

[13] = target: Fuc(a1-2)[Gal(a1-3)]Gal(b1-4)GlcNAc(b1-2)Man
Method in brief: as §1

[14] = target: Fuc(a1-2)[Gal(a1-3)]Gal(b1-4)GlcNAc(b1-2)Man(a1-3)[Fuc(a1-2)[Gal(a1-3)]Gal(b1-4)GlcNAc(b1-2)Man(a1-6)]Man(b1-4)GlcNAc(b1-4)GlcNAc
Method in brief: as §1

[15] = target: Fuc(a1-2)[Gal(a1-3)]Gal(b1-4)GlcNAc(b1-2)Man(a1-3)[Fuc(a1-2)[Gal(a1-3)]Gal(b1-4)GlcNAc(b1-2)Man(a1-6)]Man(b1-4)GlcNAc(b1-4)[Fuc(a1-6)]GlcNAc
Method in brief: as §1

[16] = target: Fuc(a1-2)[Gal(a1-3)]Gal(b1-4)GlcNAc(b1-3)GalNAc
Method in brief: as §1

[17] = target: Fuc(a1-2)[Gal(a1-3)]Gal(b1-4)GlcNAc(b1-3)[Fuc(a1-2)[Gal(a1-3)]Gal(b1-4)GlcNAc(b1-6)]GalNAc
Method in brief: as §1

[18] = target: Fuc(a1-2)[Gal(a1-3)]Gal(b1-4)GlcNAc(b1-6)GalNAc
Method in brief: as §1

[19] = target: Fuc(a1-2)[Gal(a1-3)]Gal(b1-4)[Fuc(a1-3)]Glc
Method in brief: as §1

[20] = target: Fuc(a1-2)[Gal(a1-3)]Gal(b1-4)[Fuc(a1-3)]GlcNAc
Method in brief: as §1

[21] = target: Fuc(a1-2)[Gal(a1-3)]Gal(b1-4)[Fuc(a1-3)]GlcNAc(b1-3)GalNAc
Method in brief: as §1

[22] = target: Fuc(a1-2)[Gal(a1-4)]Gal(b1-4)GlcNAc
Method in brief: as §1

[23] = target: Fuc(a1-2)[GalNAc(a1-3)]Gal
Method in brief: as §1

[24] = target: Fuc(a1-2)[GalNAc(a1-3)]Gal(b1-3)GalNAc(a1-3)[Fuc(a1-2)]Gal(b1-4)GlcNAc
Method in brief: as §1

[25] = target: Fuc(a1-2)[GalNAc(a1-3)]Gal(b1-3)GalNAc(b1-3)Gal(a1-4)Gal(b1-4)Glc
Method in brief: as §1

[26] = target: Fuc(a1-2)[GalNAc(a1-3)]Gal(b1-3)GlcNAc
Method in brief: as §1

[27] = target: Fuc(a1-2)[GalNAc(a1-3)]Gal(b1-3)GlcNAc(b1-2)Man(a1-3)[Fuc(a1-2)[GalNAc(a1-3)]Gal(b1-3)GlcNAc(b1-2)Man(a1-6)]Man(b1-4)GlcNAc(b1-4)GlcNAc
Method in brief: as §1

[28] = target: Fuc(a1-2)[GalNAc(a1-3)]Gal(b1-3)GlcNAc(b1-2)Man(a1-3)[Fuc(a1-2)[GalNAc(a1-3)]Gal(b1-3)GlcNAc(b1-2)Man(a1-6)]Man(b1-4)GlcNAc(b1-4)[Fuc(a1-6)]GlcNAc
Method in brief: as §1

[29] = target: Fuc(a1-2)[GalNAc(a1-3)]Gal(b1-3)GlcNAc(b1-3)GalNAc
Method in brief: as §1

[30] = target: Fuc(a1-2)[GalNAc(a1-3)]Gal(b1-3)GlcNAc(b1-6)GalNAc
Method in brief: as §1

[31] = target: Fuc(a1-2)[GalNAc(a1-3)]Gal(b1-4)Glc
Method in brief: as §1

[32] = target: Fuc(a1-2)[GalNAc(a1-3)]Gal(b1-4)GlcNAc
Method in brief: as §1

[33] = target: Fuc(a1-2)[GalNAc(a1-3)]Gal(b1-4)GlcNAc(b1-2)Man
Method in brief: as §1

[34] = target: Fuc(a1-2)[GalNAc(a1-3)]Gal(b1-4)GlcNAc(b1-2)Man(a1-3)[Fuc(a1-2)[GalNAc(a1-3)]Gal(b1-4)GlcNAc(b1-2)Man(a1-6)]Man(b1-4)GlcNAc(b1-4)GlcNAc
Method in brief: as §1

[35] = target: Fuc(a1-2)[GalNAc(a1-3)]Gal(b1-4)GlcNAc(b1-2)Man(a1-3)[Fuc(a1-2)[GalNAc(a1-3)]Gal(b1-4)GlcNAc(b1-2)Man(a1-6)]Man(b1-4)GlcNAc(b1-4)[Fuc(a1-6)]GlcNAc
Method in brief: as §1

[36] = target: Fuc(a1-2)[GalNAc(a1-3)]Gal(b1-4)GlcNAc(b1-3)Gal(b1-4)GlcNAc
Method in brief: as §1

[37] = target: Fuc(a1-2)[GalNAc(a1-3)]Gal(b1-4)GlcNAc(b1-3)Gal(b1-4)GlcNAc(b1-3)Gal(b1-4)GlcNAc
Method in brief: as §1

[38] = target: Fuc(a1-2)[GalNAc(a1-3)]Gal(b1-4)GlcNAc(b1-3)GalNAc
Method in brief: as §1

[39] = target: Fuc(a1-2)[GalNAc(a1-3)]Gal(b1-4)GlcNAc(b1-3)[Fuc(a1-2)[GalNAc(a1-3)]Gal(b1-4)GlcNAc(b1-6)]GalNAc
Method in brief: as §1

[40] = target: Fuc(a1-2)[GalNAc(a1-3)]Gal(b1-4)GlcNAc(b1-6)GalNAc
Method in brief: as §1

[41] = target: Fuc(a1-2)[GalNAc(a1-3)]Gal(b1-4)[Fuc(a1-3)]GlcNAc
Method in brief: as §1

[42] = target: Fuc(a1-2)[GalNAc(a1-3)]Gal(b1-4)[Fuc(a1-3)]GlcNAc(b1-3)GalNAc
Method in brief: as §1

[43] = target: Fuc(a1-2)[GalNAc(a1-4)]Gal(b1-4)GlcNAc
Method in brief: as §1

B1: SP15308C-bot-338-23-338 (Bacteroides ovatus) (protein)
chain: DEWTDEQFKQLISFKTQPGGWGVTDVHVRYANSAKYTYNLPVLVSGSTDNTDDRLVSFSLRDDTLDILNFEKFGNRPELYFRELPQKYYSFPKELTIPAGQSHALLPIEFSLDGLDDSQKWALPLKVCEDANGTYAVNPRKYYRTAVLRPILFNEFSGRFSGSSLLGTMAGESDIKFSSTEIKLNVVTDSIVFFYAGQRTEDYEDRINYKVFLQFTGDKVDSKKDLYKMKIWAENEKLKFNSYSTPTYKVSSEMDATKTYLKHTYIVISDIDFDFVDYTSVPNYEIEYNMKGGLSVSRDLDTRKPDEDQGSDSKWW
For B1, the “glycan array binding signal (z-score)” value [1] was 0.444, the “glycan array binding signal (z-score)” value [2] was 0.349 and the “glycan array binding signal (z-score)” value (Fuc(a1-2)Gal6S(b1-4)Glc) was 0.374. The “glycan array binding signal (z-score)” value [3] was 0.233, the “glycan array binding signal (z-score)” value (Fuc(a1-2)[Gal(a1-3)]Gal) was -0.151 and the “glycan array binding signal (z-score)” value [4] was -0.434. For the same binder, the “glycan array binding signal (z-score)” value [5] was -0.115, the “glycan array binding signal (z-score)” value [6] was 1.19 and the “glycan array binding signal (z-score)” value [7] was 0.042. For the same binder, the “glycan array binding signal (z-score)” value [8] was 0.018, the “glycan array binding signal (z-score)” value [9] was -0.608 and the “glycan array binding signal (z-score)” value [10] was 0.174. The “glycan array binding signal (z-score)” value [11] was -0.065, the “glycan array binding signal (z-score)” value [12] was -0.155 and the “glycan array binding signal (z-score)” value [13] was -0.124. For the same binder, the “glycan array binding signal (z-score)” value [14] was 1.38, the “glycan array binding signal (z-score)” value [15] was -0.606 and the “glycan array binding signal (z-score)” value [16] was -0.468. For the same binder, the “glycan array binding signal (z-score)” value [17] was -0.024, the “glycan array binding signal (z-score)” value [18] was -0.925 and the “glycan array binding signal (z-score)” value [19] was -0.609. For the same binder, the “glycan array binding signal (z-score)” value [20] was -0.209, the “glycan array binding signal (z-score)” value [21] was 0.386 and the “glycan array binding signal (z-score)” value [22] was 0.026. For the same binder, the “glycan array binding signal (z-score)” value [23] was 0.382, the “glycan array binding signal (z-score)” value [24] was -0.332 and the “glycan array binding signal (z-score)” value [25] was -0.514. The “glycan array binding signal (z-score)” value [26] was -0.228, the “glycan array binding signal (z-score)” value [27] was 0.307 and the “glycan array binding signal (z-score)” value [28] was -0.165. For the same binder, the “glycan array binding signal (z-score)” value [29] was -0.104, the “glycan array binding signal (z-score)” value [30] was -0.438 and the “glycan array binding signal (z-score)” value [31] was -0.504. The “glycan array binding signal (z-score)” value [32] was -0.377, the “glycan array binding signal (z-score)” value [33] was -0.097 and the “glycan array binding signal (z-score)” value [34] was 0.507. The “glycan array binding signal (z-score)” value [35] was -0.033, the “glycan array binding signal (z-score)” value [36] was -0.123 and the “glycan array binding signal (z-score)” value [37] was -0.548. The “glycan array binding signal (z-score)” value [38] was 0.127, the “glycan array binding signal (z-score)” value [39] was -0.529 and the “glycan array binding signal (z-score)” value [40] was -0.332. The “glycan array binding signal (z-score)” value [41] was 0.332, the “glycan array binding signal (z-score)” value [42] was 1.93 and the “glycan array binding signal (z-score)” value [43] was -0.615.
